PubChem BioAssay AID493246, Drosophila RNAi Screening Center – 2011

Purpose: 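Genome-wide search for dsRNAs that reduce cell number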 (primary screen)
System: Drosophila Kc and S2R+ cells
Reagents: long dsRNA against Drosophila genes
Detection: 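Raw, unnormalised count of remaining cells in each well; per-plate z-scores of cell number underlie the calls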
Scale: Kc cell number and S2R+ cell number: higher = more cells remaining
Active means: 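Active when the per-plate z-score of cell number is 3 or more in the direction of fewer cells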
The screen tested about 21,000 reagents; shown is an unselected part of those with a known target gene and a result. In the full data, 429 (2%) were called active. 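Values are raw and not normalised between plates; calls rest on per-plate z-scores that were not deposited.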 Reagents against one gene are numbered here. Names joined by + are all predicted targets of the reagent. No sequences are given here. Not stated in the record: the amount of reagent, the time to read-out.

| gene | dsRNA no. | Kc cell number, rep 1 | Kc cell number, rep 2 | S2R+ cell number, rep 1 | S2R+ cell number, rep 2 | activity call |
| --- | --- | --- | --- | --- | --- | --- |
| tor | 1 | 1.68e6 | 1.68e6 | 1.31e6 | 1.52e6 | inactive |
| CG42374 + Mettl5 | 1 | 1.60e6 | 1.58e6 | 1.40e6 | 1.47e6 | inactive |
| CG18223 | 1 | 1.61e6 | 1.66e6 | 1.24e6 | 1.43e6 | inactive |
| alpha4GT2 | 1 | 1.72e6 | 1.63e6 | 1.04e6 | 1.18e6 | inactive |
| CG17807 | 1 | 1.25e6 | 1.35e6 | 1.24e6 | 1.12e6 | inactive |
| CG10799 | 1 | 1.44e6 | 1.47e6 | 1.21e6 | 1.37e6 | inactive |
| loopin-1 | 1 | 1.30e6 | 1.32e6 | 1.18e6 | 1.26e6 | inactive |
| CG10866 | 1 | 1.35e6 | 1.23e6 | 1.03e6 | 1.18e6 | inactive |
| mRpL44 | 1 | 1.45e6 | 1.52e6 | 1.09e6 | 1.20e6 | inactive |
| Arl8 | 1 | 1.62e6 | 1.73e6 | 1.28e6 | 1.39e6 | inactive |
| Socs44A | 1 | 1.57e6 | 1.62e6 | 1.22e6 | 1.37e6 | inactive |
| dpr19 | 1 | 1.51e6 | 1.73e6 | 1.34e6 | 1.49e6 | inactive |
| Ser7 | 1 | 5.70e5 | – | 8.79e5 | – | inactive |
| r-cup | 1 | 1.43e6 | 1.49e6 | 1.10e6 | 1.17e6 | inactive |
| FANCI | 1 | 1.49e6 | 1.56e6 | 1.26e6 | 1.29e6 | inactive |
| PH4alphaNE2 | 1 | 1.63e6 | 1.66e6 | 1.05e6 | 1.13e6 | inactive |
| CG14017 | 1 | 1.46e6 | 1.35e6 | 1.09e6 | 1.27e6 | inactive |
| ana1 | 1 | 1.87e6 | 1.90e6 | 1.34e6 | 1.41e6 | inactive |
| Rab11 | 1 | 1.58e6 | 1.72e6 | 7.12e5 | 8.05e5 | inactive |
| Or22c | 1 | 1.51e6 | 1.57e6 | 9.99e5 | 1.12e6 | inactive |
| CG5509 | 1 | 1.58e6 | 1.73e6 | 1.45e6 | 1.60e6 | inactive |
| CG8892 | 1 | 1.21e6 | 1.24e6 | 6.15e5 | 7.22e5 | inactive |
| CG17660 | 1 | 1.56e6 | 1.48e6 | 8.13e5 | 8.74e5 | inactive |
| Cnot4 | 1 | 1.64e6 | 1.67e6 | 1.09e6 | 1.20e6 | inactive |
| Cnot4 | 2 | 1.58e6 | 1.63e6 | 1.01e6 | 1.16e6 | inactive |
| CG33689 | 1 | 1.33e6 | 1.52e6 | 1.13e6 | 1.30e6 | inactive |
| CG4984 + CG4975 | 1 | 1.61e6 | 1.65e6 | 1.25e6 | 1.38e6 | inactive |
| CG4984 + CG4975 | 2 | 1.34e6 | 1.40e6 | 1.17e6 | 1.18e6 | inactive |
| CG11857 | 1 | 1.30e6 | 1.28e6 | 9.98e5 | 1.04e6 | inactive |
| CG1552 | 1 | 1.57e6 | 1.50e6 | 1.06e6 | 1.20e6 | inactive |
| Hr96 | 1 | 1.61e6 | 1.62e6 | 1.35e6 | 1.39e6 | inactive |
| CG14983 | 1 | 1.36e6 | 1.33e6 | 9.96e5 | 1.15e6 | inactive |
| CG42245 + MEP-1 | 1 | 1.59e6 | 1.73e6 | 1.05e6 | 1.22e6 | inactive |
| CG42245 + MEP-1 | 2 | 1.34e6 | 1.41e6 | 9.09e5 | 1.07e6 | inactive |
| CG9500 | 1 | 1.59e6 | 1.67e6 | 1.23e6 | 1.48e6 | inactive |
| CG10650 | 1 | 1.28e6 | 1.36e6 | 1.22e6 | 1.26e6 | inactive |
| CG11191 | 1 | 1.50e6 | 1.58e6 | 1.06e6 | 1.10e6 | inactive |
| Arc2 | 1 | 1.57e6 | 1.55e6 | 1.25e6 | 1.33e6 | inactive |
| CG34001 | 1 | 1.44e6 | 1.50e6 | 1.14e6 | 1.29e6 | inactive |
| CG9701 | 1 | 1.65e6 | 1.73e6 | 1.16e6 | 1.27e6 | inactive |
| r2d2 | 1 | 1.55e6 | 1.56e6 | 1.09e6 | 1.21e6 | inactive |
| Ggamma1 | 1 | 1.60e6 | 1.60e6 | 1.18e6 | 1.28e6 | inactive |
| CG33775 | 1 | 1.57e6 | 1.60e6 | 1.05e6 | 1.22e6 | inactive |
| Sirt7 | 1 | 5.81e5 | – | 8.44e5 | – | inactive |
| kcc | 1 | 1.37e6 | 1.43e6 | 1.05e6 | 1.10e6 | inactive |
| kcc | 2 | 1.61e6 | 1.68e6 | 1.26e6 | 1.38e6 | inactive |
| CG42564 | 1 | 1.46e6 | 1.58e6 | 1.29e6 | 1.41e6 | inactive |
| CG33258 | 1 | 1.46e6 | 1.52e6 | 1.17e6 | 1.27e6 | inactive |
| CG42268 | 1 | 1.47e6 | 1.55e6 | 1.22e6 | 1.38e6 | inactive |
| CG42268 | 2 | 1.43e6 | 1.55e6 | 1.42e6 | 1.52e6 | inactive |
| CG8814 | 1 | 1.30e6 | 1.39e6 | 8.02e5 | 9.20e5 | inactive |
| Phlpp | 1 | 1.47e6 | 1.62e6 | 1.28e6 | 3.40e5 | inactive |
| CG17221 | 1 | 1.53e6 | 1.51e6 | 1.15e6 | 1.24e6 | inactive |
| Lint-1 | 1 | 5.49e5 | – | 6.94e5 | – | inactive |
| CG14374 | 1 | 1.21e6 | 1.21e6 | 1.22e6 | 1.34e6 | inactive |
| Prosbeta5R1 | 1 | 1.70e6 | 1.58e6 | 1.41e6 | 1.49e6 | inactive |
| Tmem63 | 1 | 1.65e6 | 1.61e6 | 1.40e6 | 1.45e6 | inactive |
| CG9014 | 1 | 1.59e6 | 1.72e6 | 1.20e6 | 1.33e6 | inactive |
| CG7194 | 1 | 1.53e6 | 1.37e6 | 1.18e6 | 1.24e6 | inactive |
| Cp110 | 1 | 1.49e6 | 1.54e6 | 1.06e6 | 1.21e6 | inactive |
| Fign | 1 | 1.52e6 | 1.53e6 | 8.70e5 | 9.76e5 | inactive |
| Gle1 | 1 | 1.31e6 | 1.38e6 | 1.00e6 | 1.16e6 | inactive |
| lbe | 1 | 1.45e6 | 1.45e6 | 1.04e6 | 1.16e6 | inactive |
| ato | 1 | 1.85e6 | 2.04e6 | 1.24e6 | 1.66e6 | inactive |
| Gp93 | 1 | 5.15e5 | – | 8.48e5 | – | inactive |
| CG30485 | 1 | 1.67e6 | 1.71e6 | 1.41e6 | 1.47e6 | inactive |
| mle | 1 | 1.49e6 | 1.53e6 | 1.28e6 | 1.31e6 | inactive |
| CG14757 | 1 | 1.54e6 | 1.59e6 | 1.19e6 | 1.31e6 | inactive |
| PH4alphaNE1 | 1 | 5.35e5 | – | 8.21e5 | – | inactive |
| CG13408 | 1 | 1.39e6 | 1.41e6 | 1.00e6 | 1.07e6 | inactive |
| CG13408 | 2 | 1.41e6 | 1.37e6 | 1.17e6 | 1.26e6 | inactive |
| rha | 1 | 5.51e5 | – | 8.58e5 | – | inactive |
| Gr2a | 1 | 1.67e6 | 1.70e6 | 1.05e6 | 1.16e6 | inactive |
| Vha68-1 | 1 | 1.87e6 | 2.04e6 | 1.27e6 | 1.40e6 | inactive |
| Myo28B1 | 1 | 1.67e6 | 1.70e6 | 1.25e6 | 1.44e6 | inactive |
